Test results published in patent US20160298117, “PEANUT-BINDING NUCLEIC ACID MOLECULE AND USE THEREOF” (NEC Solution Innovators, Ltd., published 2016).
For part of these data: No signal at the amounts used counts as a negative. For part of these data: Where a protein sequence is shown, tags need not be part of it. For part of these data: Construct, isoform or probe ends are uncertain for at least one entry. For part of these data: Where cells or extracts were used, other partners may take part.

Chains of the proteins cited; added tags and fusions are not shown. A line that says so, or that is headed by a name, gives the form on record, which may keep a tag or linker.
beta-conglycinin (heat-denatured, boiled 10 min) (Glycine max), one chain, as listed by the source, chain 1 of 3: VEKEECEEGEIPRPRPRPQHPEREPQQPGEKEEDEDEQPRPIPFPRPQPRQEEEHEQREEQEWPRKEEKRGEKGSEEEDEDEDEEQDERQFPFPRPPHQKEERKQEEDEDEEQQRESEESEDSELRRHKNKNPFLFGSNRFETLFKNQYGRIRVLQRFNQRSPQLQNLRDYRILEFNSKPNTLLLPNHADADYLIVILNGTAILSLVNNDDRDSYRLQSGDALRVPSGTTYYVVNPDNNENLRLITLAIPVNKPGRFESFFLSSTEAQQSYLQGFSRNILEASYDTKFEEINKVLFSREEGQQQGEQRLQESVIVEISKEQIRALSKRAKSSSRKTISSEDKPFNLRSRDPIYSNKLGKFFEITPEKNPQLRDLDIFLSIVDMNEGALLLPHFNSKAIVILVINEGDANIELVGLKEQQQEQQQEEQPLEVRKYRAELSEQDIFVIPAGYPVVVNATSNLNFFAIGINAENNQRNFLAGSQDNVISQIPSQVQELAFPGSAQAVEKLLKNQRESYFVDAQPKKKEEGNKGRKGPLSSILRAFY
beta-conglycinin (heat-denatured, boiled 10 min) (Glycine max), one chain, as listed by the source, chain 2 of 3: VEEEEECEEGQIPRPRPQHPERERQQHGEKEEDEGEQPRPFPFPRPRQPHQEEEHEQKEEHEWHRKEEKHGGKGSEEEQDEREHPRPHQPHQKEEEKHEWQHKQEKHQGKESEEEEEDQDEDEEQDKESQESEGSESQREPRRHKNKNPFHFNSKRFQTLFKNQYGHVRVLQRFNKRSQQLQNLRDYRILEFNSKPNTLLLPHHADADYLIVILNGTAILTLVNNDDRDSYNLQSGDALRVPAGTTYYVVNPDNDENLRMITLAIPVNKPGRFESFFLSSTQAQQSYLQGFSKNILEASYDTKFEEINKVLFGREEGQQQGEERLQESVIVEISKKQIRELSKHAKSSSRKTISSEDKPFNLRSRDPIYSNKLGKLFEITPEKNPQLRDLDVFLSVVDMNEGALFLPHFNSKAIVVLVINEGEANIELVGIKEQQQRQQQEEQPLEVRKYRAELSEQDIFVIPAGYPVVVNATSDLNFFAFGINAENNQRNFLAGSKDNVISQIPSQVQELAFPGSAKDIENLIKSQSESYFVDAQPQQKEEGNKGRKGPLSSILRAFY
beta-conglycinin (heat-denatured, boiled 10 min) (Glycine max), one chain, as listed by the source, chain 3 of 3: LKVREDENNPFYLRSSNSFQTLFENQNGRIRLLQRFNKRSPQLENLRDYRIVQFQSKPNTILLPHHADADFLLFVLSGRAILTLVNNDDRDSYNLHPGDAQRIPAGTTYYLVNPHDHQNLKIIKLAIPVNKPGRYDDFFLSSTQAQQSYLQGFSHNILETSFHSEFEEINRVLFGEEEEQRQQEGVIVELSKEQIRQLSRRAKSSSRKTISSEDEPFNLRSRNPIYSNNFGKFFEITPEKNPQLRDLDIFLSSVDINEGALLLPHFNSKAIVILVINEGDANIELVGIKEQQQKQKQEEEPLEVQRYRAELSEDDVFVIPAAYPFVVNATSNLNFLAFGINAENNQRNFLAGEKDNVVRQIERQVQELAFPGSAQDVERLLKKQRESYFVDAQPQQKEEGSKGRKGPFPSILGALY

Experiments:
[1] = tested on: peanut seed total protein extract (heat-denatured) (Arachis hypogaea); assay: SPR; settings: protein in an extract, single-stranded DNA
[2] = tested on: soybean seed total protein extract (heat-denatured) (Glycine max); assay: SPR; settings: protein in an extract, protein details: NMIJ CRM 7511-a ground soybean, single-stranded DNA
[3] = tested on: peanut seed total protein extract (undenatured) (Arachis hypogaea); assay: SPR; settings: 1-100 ppm, less than heat-denatured, protein in an extract, single-stranded DNA
[4] = tested on: soybean seed total protein extract (undenatured) (Glycine max); assay: SPR; settings: little binding, 1-100 ppm, protein in an extract, protein details: NMIJ CRM 7511-a ground soybean, single-stranded DNA
[5] = target: T1, Ara h1 (heat-denatured, purified from parboiled peanut) (Arachis hypogaea) (UniProt P43238); assay: SPR; settings: all T replaced by 5-tryptaminocarbonyl-dU (TrpdU); 6.25-100 nM Ara h1; purified native protein; protein details: INDOOR biotechnologies NA-AH1-1; single-stranded DNA
T1 sequence (looked up, limits assumed): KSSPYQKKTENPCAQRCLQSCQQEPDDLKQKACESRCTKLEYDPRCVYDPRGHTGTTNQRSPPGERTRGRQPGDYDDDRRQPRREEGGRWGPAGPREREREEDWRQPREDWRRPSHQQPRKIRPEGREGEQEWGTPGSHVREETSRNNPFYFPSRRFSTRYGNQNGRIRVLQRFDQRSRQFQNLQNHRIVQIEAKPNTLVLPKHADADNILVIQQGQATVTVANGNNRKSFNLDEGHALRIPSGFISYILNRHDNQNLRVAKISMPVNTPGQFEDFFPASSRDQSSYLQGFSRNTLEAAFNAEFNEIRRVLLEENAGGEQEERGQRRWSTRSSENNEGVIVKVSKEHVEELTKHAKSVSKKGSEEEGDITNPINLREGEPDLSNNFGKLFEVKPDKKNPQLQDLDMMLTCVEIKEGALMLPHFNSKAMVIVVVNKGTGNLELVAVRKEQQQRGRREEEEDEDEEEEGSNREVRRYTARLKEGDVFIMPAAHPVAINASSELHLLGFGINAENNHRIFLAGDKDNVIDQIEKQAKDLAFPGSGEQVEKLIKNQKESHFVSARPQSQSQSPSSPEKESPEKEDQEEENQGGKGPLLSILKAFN

[6] = tested on: beta-conglycinin (heat-denatured, boiled 10 min) (Glycine max); assay: SPR; settings: all T replaced by 5-tryptaminocarbonyl-dU (TrpdU); little binding, 18.75-300 nM; purified native protein; protein details: Sigma C5868-5GM, boiled; single-stranded DNA
[7] = tested on: beta-conglycinin (undenatured) (Glycine max); assay: SPR; settings: all T replaced by 5-tryptaminocarbonyl-dU (TrpdU); little binding, 18.75-300 nM; purified native protein; protein details: Sigma C5868-5GM; single-stranded DNA
[8] = target: T2, conarachin (heat-denatured, boiled 10 min) (Arachis hypogaea) (UniProt P43238); assay: SPR; settings: all T replaced by 5-tryptaminocarbonyl-dU (TrpdU); 3.125-50 nM; superior to undenatured; purified native protein; protein details: COSMO BIO CSB-CSB-NP003601PL, boiled; single-stranded DNA
T2 sequence (looked up, limits assumed): T1 sequence (looked up, limits assumed)

[9] = tested on: peanut seed total protein extract (heat-denatured) (Arachis hypogaea); assay: FP; settings: 1 nM FITC aptamer, 3-30 ppm protein, polarization rises with concentration; protein in an extract; label: 5'-FITC; single-stranded DNA
[10] = tested on: soybean seed total protein extract (heat-denatured) (Glycine max); assay: FP; settings: 3-30 ppm protein, no change in polarization; protein in an extract; protein details: NMIJ CRM 7511-a ground soybean; label: 5'-FITC; single-stranded DNA
[11] = all T replaced by 5-tryptaminocarbonyl-dU (TrpdU)

Row | Sequence | binding result ([1]; very high binding) | binding result ([2]; no binding) | binding result ([1]; total protein extract) | binding result [3] | binding result ([2]; little binding) | binding result [4] | other results
1 | CTCTCTCTCTCCCCCCCTCTCTCTCAAAAAAAAAAAAAAAAAAAAAAAA [CT25_C7] | binds | no binding |  |  |  |  | 
2 | GAATCCGCGGGGTAGCGGTGGCGAGCGATTCAAAAAAAAAAAAAAAAAAAAAAAA [P_NES02 (CONA161R8m1s31)] |  |  | binds | binds | no binding | no binding | 
3 | CTCTCTCTCCCCCCCCCCCTCTCTCAAAAAAAAAAAAAAAAAAAAAAAA [CT25_C11] | binds | no binding |  |  |  |  | 
4 | CACACACACACCCCCCCACACACACAAAAAAAAAAAAAAAAAAAAAAAAA [CA25_C7] | binds | no binding |  |  |  |  | 
5 | GTTTTCTAGGCCAATCTGATCAACAAAAAAAAAAAAAAAAAAAAAAAA [P_NES04 (CONA171NNHR2R8m2s24)] |  |  | binds | binds | no binding | no binding | 
6 | GGATTCCGTGCCGTGCTAAAGGCCTCCCCGTTTATAGGCAGGTATCCGGCAGACTACTGGGCTTGCGACAAATGAAAAAAAAAAAAAAAAAAAAAAAA [P_NES_M01 (CONA170TEDAR2R8m1)] |  |  |  |  |  |  | binding result [5]: binds; binding result [6]: no binding; binding result [7]: no binding; binding result [8]: binds; binding result ([1]; all T replaced by 5-tryptaminocarbonyl-dU (TrpdU), total protein extract): binds; binding result [3, 11]: binds; binding result ([2]; all T replaced by 5-tryptaminocarbonyl-dU (TrpdU), little binding): no binding; binding result [4, 11]: no binding
7 | GTTCGTGGTGTGTTGTGTGTGATTCCAGGGACAAAAAAAAAAAAAAAAAAAAAAAA [P_NES03 (CONA161R2R8m1s32)] |  |  | binds | binds | no binding | no binding | 
8 | CCCGCCTGTATTCCTGTCCAAAAAAAAAAAAAAAAAAAAAAAA [P_NES01 (NAH1128R7Am2s19G)] |  |  | binds | binds | no binding | no binding | 
9 | CACACACACACACCCACACACACACAAAAAAAAAAAAAAAAAAAAAAAAA [CA25_C3] | binds | no binding |  |  |  |  | 
10 | CACACACACACACACACACACACACAAAAAAAAAAAAAAAAAAAAAAAAA [CA25_C0] | binds | no binding |  |  |  |  | 
11 | TTTTTTTTTTTTTTTTTTTTAAAAAAAAAAAAAAAAAAAAAAAA [PolydT20] |  |  | binds | binds | no binding | no binding | 
12 | TCTCTACCCCCCACCGCCCACGACTC [NAH1121NNH200R7m1s26] |  |  |  |  |  |  | binding result [9]: binds; binding result [10]: no binding
13 | CTCTCTCTCTCTCTCTCTCTCTCTCAAAAAAAAAAAAAAAAAAAAAAAA [CT25_C0] | binds | no binding |  |  |  |  | 
14 | CTCTCTCTCTCTCCCTCTCTCTCTCAAAAAAAAAAAAAAAAAAAAAAAA [CT25_C3 (Pyrimidine rich)] |  |  | binds | binds |  | no binding | binding result ([2]; little or no binding): no binding
15 | CACACACACCCCCCCCCCCACACACAAAAAAAAAAAAAAAAAAAAAAAAA [CA25_C11] | binds | no binding |  |  |  |  | 
